Values joined by “and” are separate entries in the source; they are usually repeats but may differ in a detail not shown here. Identical values can stand only once. Further values from the same series stand in other lists.
Legend:
Assay type in all cases: biochemical
CB2R WT = CB2R WT (Homo sapiens, UniProt P34972); assay: [35S]GTPγS G protein activation assay, CB2R WT
CB2R-S285^7.39A = CB2R-S285^7.39A (Homo sapiens, UniProt P34972, S285A); assay: [35S]GTPγS assay, CB2R S285A mutant; conditions: S2857.39A, individual replicates
CB2R-H95^2.65A = CB2R-H95^2.65A (Homo sapiens, UniProt P34972, H95A); assay: [35S]GTPγS assay, CB2R H95A mutant; conditions: H952.65A, individual replicates
[1] = log [ligand] (M) -5, individual replicates
[2] = log [ligand] (M) -6, individual replicates
[3] = log [ligand] (M) -7, individual replicates
[4] = log [ligand] (M) -8, individual replicates
[5] = log [ligand] (M) -9, individual replicates
[6] = log [ligand] (M) -10, individual replicates

By UniProt entry, the sequences of proteins in these tests, tags left out.
UniProt P34972, whole entry: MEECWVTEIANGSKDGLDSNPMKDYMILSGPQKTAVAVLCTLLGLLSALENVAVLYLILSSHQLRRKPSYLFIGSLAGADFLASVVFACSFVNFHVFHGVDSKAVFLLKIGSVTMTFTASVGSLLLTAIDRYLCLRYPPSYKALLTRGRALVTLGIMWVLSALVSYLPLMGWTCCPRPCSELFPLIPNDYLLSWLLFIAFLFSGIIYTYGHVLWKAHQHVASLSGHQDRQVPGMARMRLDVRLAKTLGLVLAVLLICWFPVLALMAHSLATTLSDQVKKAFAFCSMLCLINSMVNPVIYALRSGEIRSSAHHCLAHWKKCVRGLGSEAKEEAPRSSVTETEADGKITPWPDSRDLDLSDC
UniProt P34972, whole entry S285A: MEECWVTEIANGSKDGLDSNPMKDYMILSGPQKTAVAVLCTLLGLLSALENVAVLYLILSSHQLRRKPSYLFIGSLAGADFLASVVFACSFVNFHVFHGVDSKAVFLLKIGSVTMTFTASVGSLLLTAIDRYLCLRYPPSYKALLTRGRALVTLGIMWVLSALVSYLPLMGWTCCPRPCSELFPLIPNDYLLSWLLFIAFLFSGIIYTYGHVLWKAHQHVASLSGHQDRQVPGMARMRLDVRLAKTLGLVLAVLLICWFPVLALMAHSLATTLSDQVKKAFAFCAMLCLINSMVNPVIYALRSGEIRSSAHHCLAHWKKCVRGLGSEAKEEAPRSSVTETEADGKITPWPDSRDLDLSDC
UniProt P34972, whole entry H95A: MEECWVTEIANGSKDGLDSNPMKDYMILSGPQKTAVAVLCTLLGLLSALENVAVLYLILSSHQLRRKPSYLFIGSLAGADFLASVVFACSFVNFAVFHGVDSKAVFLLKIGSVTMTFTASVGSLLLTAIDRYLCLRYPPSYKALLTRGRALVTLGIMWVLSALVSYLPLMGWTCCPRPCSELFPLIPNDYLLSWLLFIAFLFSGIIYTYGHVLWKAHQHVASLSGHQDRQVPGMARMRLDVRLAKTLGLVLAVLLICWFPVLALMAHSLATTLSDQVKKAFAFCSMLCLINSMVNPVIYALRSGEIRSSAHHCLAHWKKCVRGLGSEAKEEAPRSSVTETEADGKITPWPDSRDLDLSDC

| Structure (SMILES) | [35S]GTPγS binding (CB2R WT; [1]) | [35S]GTPγS binding (CB2R WT; [2]) | [35S]GTPγS binding (CB2R WT; [3]) | [35S]GTPγS binding (CB2R WT; [4]) | [35S]GTPγS binding (CB2R WT; [5]) | [35S]GTPγS binding (CB2R WT; [6]) | [35S]GTPγS binding (CB2R-S285^7.39A; log [ligand] (M) -5) | [35S]GTPγS binding (CB2R-S285^7.39A; log [ligand] (M) -6) | [35S]GTPγS binding (CB2R-S285^7.39A; log [ligand] (M) -7) | [35S]GTPγS binding (CB2R-S285^7.39A; log [ligand] (M) -8) | [35S]GTPγS binding (CB2R-S285^7.39A; log [ligand] (M) -9) | [35S]GTPγS binding (CB2R-S285^7.39A; log [ligand] (M) -10) | [35S]GTPγS binding (CB2R-H95^2.65A; log [ligand] (M) -5) | [35S]GTPγS binding (CB2R-H95^2.65A; log [ligand] (M) -6) | [35S]GTPγS binding (CB2R-H95^2.65A; log [ligand] (M) -7) | [35S]GTPγS binding (CB2R-H95^2.65A; log [ligand] (M) -8) | [35S]GTPγS binding (CB2R-H95^2.65A; log [ligand] (M) -9) | [35S]GTPγS binding (CB2R-H95^2.65A; log [ligand] (M) -10) |
| --- | --- | --- | --- | --- | --- | --- | --- | --- | --- | --- | --- | --- | --- | --- | --- | --- | --- | --- |
| CC(C)(C)[C@@H](CO)NC(=O)c1nn(-c2c[n+]([O-])ccn2)c2c1C[C@@H]1C[C@H]21 [APD371] | 112.85 percentage of WT and 96.11 percentage of WT and 105.97 percentage of WT and 104.55 percentage of WT and 108.60 percentage of WT and 118.20 percentage of WT and 121.51 percentage of WT and 97.04 percentage of WT and 112.64 percentage of WT and 109.39 percentage of WT | 101.65 percentage of WT and 108.05 percentage of WT and 103.76 percentage of WT and 85.64 percentage of WT and 90.30 percentage of WT and 90.60 percentage of WT and 85.69 percentage of WT and 110.33 percentage of WT and 98.28 percentage of WT and 90.42 percentage of WT | 65.22 percentage of WT and 83.81 percentage of WT and 71.51 percentage of WT and 50.32 percentage of WT and 60.90 percentage of WT and 88.20 percentage of WT and 84.57 percentage of WT and 83.61 percentage of WT and 70.16 percentage of WT and 80.76 percentage of WT | 50.98 percentage of WT and 55.36 percentage of WT and 52.62 percentage of WT and 28.70 percentage of WT and 27.80 percentage of WT and 75.70 percentage of WT and 65.42 percentage of WT and 58.27 percentage of WT and 49.03 percentage of WT and 40.50 percentage of WT | -12.56 percentage of WT and -13.21 percentage of WT and 19.42 percentage of WT and -3.17 percentage of WT and -11.40 percentage of WT and 29.40 percentage of WT and 20.93 percentage of WT and 28.40 percentage of WT and 21.84 percentage of WT and 14.36 percentage of WT | -15.70 percentage of WT and -30.32 percentage of WT and 18.97 percentage of WT and 10.28 percentage of WT and -13.90 percentage of WT and 6.00 percentage of WT and 15.58 percentage of WT and 18.42 percentage of WT and -0.62 percentage of WT and 14.36 percentage of WT | 45.61 percentage of WT and 60.50 percentage of WT and 40.60 percentage of WT | 40.03 percentage of WT and 54.20 percentage of WT and 21.00 percentage of WT | 21.02 percentage of WT and 18.80 percentage of WT and 5.80 percentage of WT | -0.69 percentage of WT and -5.50 percentage of WT and -1.50 percentage of WT | 2.38 percentage of WT and 4.40 percentage of WT and -1.70 percentage of WT | -4.26 percentage of WT and -10.70 percentage of WT and -3.40 percentage of WT | 52.03 percentage of WT and 47.30 percentage of WT and 50.30 percentage of WT | 26.16 percentage of WT and 2.30 percentage of WT and 33.20 percentage of WT | 21.06 percentage of WT and -6.80 percentage of WT and 5.10 percentage of WT | 8.77 percentage of WT and -23.50 percentage of WT and 12.90 percentage of WT | 11.56 percentage of WT and -13.30 percentage of WT and 10.80 percentage of WT | 12.25 percentage of WT and -25.60 percentage of WT and 11.00 percentage of WT |
| CCCCCCC(C)(C)c1cc(OC)c([C@@H]2C=C(CO)[C@@H]3C[C@H]2C3(C)C)c(OC)c1 [HU308] | 96.97 percentage of WT and 103.73 percentage of WT and 107.70 percentage of WT and 98.66 percentage of WT and 128.60 percentage of WT and 99.50 percentage of WT and 113.08 percentage of WT and 99.28 percentage of WT and 98.69 percentage of WT and 100.80 percentage of WT | 95.84 percentage of WT and 64.21 percentage of WT and 97.52 percentage of WT and 59.42 percentage of WT and 65.00 percentage of WT and 85.80 percentage of WT and 76.92 percentage of WT and 100.47 percentage of WT and 94.26 percentage of WT and 88.94 percentage of WT | 66.45 percentage of WT and 33.08 percentage of WT and 87.57 percentage of WT and 28.56 percentage of WT and 90.60 percentage of WT and 37.80 percentage of WT and 49.46 percentage of WT and 57.48 percentage of WT and 59.67 percentage of WT and 47.80 percentage of WT | 9.42 percentage of WT and 30.54 percentage of WT and 55.90 percentage of WT and 9.76 percentage of WT and 40.10 percentage of WT and 6.20 percentage of WT and 20.26 percentage of WT and 34.41 percentage of WT and 17.62 percentage of WT and 23.72 percentage of WT | -2.14 percentage of WT and -19.02 percentage of WT and 16.94 percentage of WT and -14.29 percentage of WT and -15.70 percentage of WT and -6.90 percentage of WT and -22.82 percentage of WT and -1.37 percentage of WT and 14.28 percentage of WT and 7.88 percentage of WT | 12.69 percentage of WT and 0.12 percentage of WT and -18.99 percentage of WT and 12.94 percentage of WT and 1.90 percentage of WT and -10.30 percentage of WT and -18.00 percentage of WT and 0.09 percentage of WT and 9.81 percentage of WT and 3.21 percentage of WT | 57.49 percentage of WT and 99.30 percentage of WT and 37.20 percentage of WT | 24.02 percentage of WT and 49.70 percentage of WT and 10.20 percentage of WT | 4.80 percentage of WT and 21.40 percentage of WT and 7.30 percentage of WT | 9.70 percentage of WT and 18.40 percentage of WT and -21.50 percentage of WT | -6.66 percentage of WT and 7.70 percentage of WT and -20.10 percentage of WT | -1.09 percentage of WT and -1.80 percentage of WT and -13.50 percentage of WT | 39.67 percentage of WT and 95.40 percentage of WT and 66.90 percentage of WT | 25.43 percentage of WT and 64.30 percentage of WT and 39.60 percentage of WT | 16.36 percentage of WT and 18.60 percentage of WT and 22.20 percentage of WT | 20.18 percentage of WT and 16.90 percentage of WT and 8.00 percentage of WT | -0.48 percentage of WT and 5.30 percentage of WT and 13.20 percentage of WT | 11.53 percentage of WT and 13.50 percentage of WT and 28.40 percentage of WT |
| CC(C)CN1C(=O)CN(Cc2ccc(-c3ccc(F)c(CNC4CCOCC4)n3)cc2)C1=O [LEI-102, 1-(4-(5-fluoro-6-(((tetrahydro-2H-pyran-4-yl)amino)methyl)pyridin-2-yl)benzyl)-3-isobutylimidazolidine-2,4-dione] | 82.84 percentage of WT and 105.72 percentage of WT and 105.18 percentage of WT and 93.74 percentage of WT and 96.80 percentage of WT and 97.90 percentage of WT and 114.64 percentage of WT and 111.07 percentage of WT and 117.28 percentage of WT and 102.43 percentage of WT | 114.91 percentage of WT and 83.97 percentage of WT and 63.14 percentage of WT and 57.64 percentage of WT and 73.00 percentage of WT and 72.80 percentage of WT and 84.18 percentage of WT and 76.76 percentage of WT and 76.66 percentage of WT and 89.94 percentage of WT | 51.21 percentage of WT and 69.14 percentage of WT and 40.40 percentage of WT and 9.86 percentage of WT and 25.50 percentage of WT and 17.20 percentage of WT and 73.59 percentage of WT and 49.19 percentage of WT and 85.43 percentage of WT and 66.41 percentage of WT | 29.05 percentage of WT and -0.75 percentage of WT and 6.78 percentage of WT and 8.81 percentage of WT and 13.30 percentage of WT and 9.90 percentage of WT and 32.54 percentage of WT and 34.61 percentage of WT and 37.02 percentage of WT and 0.45 percentage of WT | -3.55 percentage of WT and 7.29 percentage of WT and 0.91 percentage of WT and -15.68 percentage of WT and -11.00 percentage of WT and -14.10 percentage of WT and -2.35 percentage of WT and -0.95 percentage of WT and 21.78 percentage of WT and -35.12 percentage of WT | 32.17 percentage of WT and -8.80 percentage of WT and 5.80 percentage of WT and -5.61 percentage of WT and 24.70 percentage of WT and -24.60 percentage of WT and 0.52 percentage of WT and 0.75 percentage of WT and 35.26 percentage of WT and -26.23 percentage of WT | 58.41 percentage of WT and 46.90 percentage of WT and 30.50 percentage of WT | 32.73 percentage of WT and 21.70 percentage of WT and 7.90 percentage of WT | 27.58 percentage of WT and -13.70 percentage of WT and -12.80 percentage of WT | 9.47 percentage of WT and -18.20 percentage of WT and -26.20 percentage of WT | 0.11 percentage of WT and -19.50 percentage of WT and -21.70 percentage of WT | 7.40 percentage of WT and -15.80 percentage of WT and -17.70 percentage of WT | 62.55 percentage of WT and 75.60 percentage of WT and 53.20 percentage of WT | 29.15 percentage of WT and -6.90 percentage of WT and 42.60 percentage of WT | 28.77 percentage of WT and -14.00 percentage of WT and 28.10 percentage of WT | 22.35 percentage of WT and -8.30 percentage of WT and -9.70 percentage of WT | 20.38 percentage of WT and -3.00 percentage of WT and 16.20 percentage of WT | 32.52 percentage of WT and 2.50 percentage of WT and 16.10 percentage of WT |

From paper PMC10017709, “Structural basis of selective cannabinoid CB2 receptor activation” (Nature Communications, 2023)
